Measurements as given in patent EP4640694A1, “SELF-ASSEMBLING PEPTIDE” (CYTOPORT (TIANJIN) BIOTECHNOLOGY CO., LTD, priority 2022, dated 2025).
Not every detail of the peptide structures is certain; ends, links or a residue may be inferred. Where a SMILES comes first, the peptide text is derived from it. Where no end group is shown, it is not given here. [ ]: non-standard residue; d: D form. Hyp = O=C(O)[C@@H]1C[C@@H](O)CN1

Columns and labels:
[1] = system: erythrocytes; assay: Erythrocyte support by different sequences under liquid conditions; assay type: cell-based; settings: 0.01 wt% peptide, 0.1 wt% fibronectin, 1×10^8 erythrocytes
Experimental: Experimental Methods: PBS buffer was used to separately prepare a concentration of 0.1 wt% stock solutions of self-assembling peptides as shown in SEQ ID NO.: 1 (IIIIIGSIIGPGGDGPGGV), SEQ ID NO.: 2 (IIIIIGSIIGPGGEGPGGV), SEQ ID NO.: 3 (IIIIIGSIIGOGGEGPGGV), and SEQ ID NO.: 7 (IIIIIGSIIGOGAEGPGGV). These solutions were autoclaved.
Using 2 mL clear glass vials, 4 materials were prepared at concentrations of 0.1 wt%, 0.05 wt%, and 0.01 wt% in 2 mL of self-assembling peptide solution (containing a final concentration of 0.1 wt% of fibronectin) and a blank group (without self-assembling peptide solution, but containing 0.1 wt% of fibronectin). A stock solution of at a concentration of 5×10^9 erythrocytes was added to each sample to a final concentration of 1×10^8, and the mixture was homogenized by pipetting. Photographs were taken every 4 hours to compare the effects of different materials on the support for erythrocytes.

[2] = Dispersion and support of medical cosmetic microspheres, gelation with tissue fluid; settings: for gelation of peptide/microsphere mixture: addition of 1/5 of tissue fluid; for state of microsphere suspension: room temperature for one month
[3] = system: HepG2; assay: Three-dimensional cell culture, spheroid formation; assay type: cell-based
[4] = system: HepG2; assay: Cell support effect in three-dimensional space after initiation (confocal microscopy); assay type: cell-based; settings: 0.1 wt% peptide initiated by spermine, high glucose complete medium, tissue fluid or serum
[5] = Hydrogel formation of self-assembling peptide solution in response to an initiator (vial inversion, syringe extrusion); assay type: physicochemical
[6] = Rheological experiment, energy storage modulus (G') of peptide/serum mixture; assay type: physicochemical
Text: Experimental Methods: Preparation of Self-Assembling Peptide Material Samples: 2 wt% of the self-assembling peptide solution obtained in Example 2 was used, the sequences as shown in SEQ ID NO:1 (IIIIGSIIGPGGDGPGGV), SEQ ID NO:2 (IIIIGSIIGPGGEGPGGV), SEQ ID NO:3 (IIIIGSIIGOGGEGPGGV), SEQ ID NO:4 (IIIIGSIIGOGGGEGPGGV), SEQ ID NO:5 (IIIIGSIIGOGGEGPGGGV), SEQ ID NO:6 (IIIIGSIIGOGGEGPGV), SEQ ID NO:7 (IIIIGSIIGOGAEGPGGV), SEQ ID NO:8 (IIIIIGSIIOGGAEGPGGV), SEQ ID NO:9 (IIIIIGSIIGOGGVGPGGV), and SEQ ID NO: 10 (IIIIIIGSIIGOGAEGPGGVGPGGV).
Preparation of hydrogel samples formed by self-assembling peptide solutions in response to cell complete medium: 2 wt% of stock solution of self-assembling peptides obtained in Example 2 was diluted with phosphate buffer, added by fetal bovine serum to achieve a mixture solution with a final concentration of self-assembling peptide of 0.5%, a final concentration of serum of 10 v/v% with a neutral pH.
The energy storage modulus (G') of the mixture solution was measured on a 20 mm plate using MARS 60 rheometer. In order to determine the rate of formation of three-dimensional nanomatrix, the solution was placed on a plate for testing immediately after preparation. A gap of 500µm was used, mineral oil was added to the gap to prevent dehydration of the samples, and data collection commenced immediately. Dynamic Time-Scanning experiment (DTS) was performed to monitor changes in energy storage modulus (G') with time (1 Hz frequency, 1% strain) for 2000 min.

[7] = 1.5% peptide, 5% poly-L-lactic acid microspheres
[8] = 2% peptide mixed with an equal volume of human tissue fluid
[9] = 0.5% peptide, 10 v/v% fetal bovine serum, neutral pH

## CC[C@H](C)[C@H](N)C(=O)N[C@H](C(=O)N[C@H](C(=O)N[C@H](C(=O)N[C@H](C(=O)NCC(=O)N[C@@H](CO)C(=O)N[C@H](C(=O)N[C@H](C(=O)NCC(=O)N1C[C@H](O)C[C@H]1C(=O)NCC(=O)N[C@@H](C)C(=O)N[C@@H](CCC(=O)O)C(=O)NCC(=O)N1CCC[C@H]1C(=O)NCC(=O)NCC(=O)N[C@H](C(=O)O)C(C)C)[C@@H](C)CC)[C@@H](C)CC)[C@@H](C)CC)[C@@H](C)CC)[C@@H](C)CC)[C@@H](C)CC [SEQ ID NO.: 7, IIIIIGSIIGOGAEGPGGV] (H-IIIIIGSIIG[Hyp]GAEGPGGV-OH)
[1]
  time at which significant sedimentation of erythrocytes was shown: 48 h

## CC[C@H](C)[C@H](N)C(=O)N[C@H](C(=O)N[C@H](C(=O)N[C@H](C(=O)N[C@H](C(=O)NCC(=O)N1C[C@H](O)C[C@H]1C(=O)NCC(=O)N[C@H](C(=O)N[C@H](C(=O)NCC(=O)N1C[C@H](O)C[C@H]1C(=O)NCC(=O)NCC(=O)N[C@@H](CCC(=O)O)C(=O)NCC(=O)N1CCC[C@H]1C(=O)NCC(=O)NCC(=O)N[C@H](C(=O)O)C(C)C)[C@@H](C)CC)[C@@H](C)CC)[C@@H](C)CC)[C@@H](C)CC)[C@@H](C)CC)[C@@H](C)CC [SEQ ID NO.: 25, IIIIIGOGIIGOGGEGPGGV] (H-IIIIIG[Hyp]GIIG[Hyp]GGEGPGGV-OH)
[2]; [7]
  gelation of peptide/microsphere mixture: a hydrogel phenomenon was occured
  state of microsphere suspension: uniform suspension state

## CC[C@H](C)[C@H](N)C(=O)N[C@H](C(=O)N[C@H](C(=O)N[C@H](C(=O)N[C@H](C(=O)NCC(=O)N1C[C@H](O)C[C@H]1C(=O)NCC(=O)N[C@H](C(=O)N[C@H](C(=O)NCC(=O)N1CCC[C@H]1C(=O)NCC(=O)NCC(=O)N[C@@H](CCC(=O)O)C(=O)NCC(=O)N1CCC[C@H]1C(=O)NCC(=O)NCC(=O)N[C@@H](CCC(=O)O)C(=O)O)[C@@H](C)CC)[C@@H](C)CC)[C@@H](C)CC)[C@@H](C)CC)[C@@H](C)CC)[C@@H](C)CC [SEQ ID NO.: 13, IIIIIGOGIIGPGGEGPGGE] (H-IIIIIG[Hyp]GIIGPGGEGPGGE-OH)
[3]; 0.1 wt.% peptide initiated by high glucose medium
  time taken for spheroid formation: 72 h
[3]; 0.1 wt.% peptide, after 7 days of culture
  diameter of the cell spheroid: increased significantly
[3]; 0.1 wt.% peptide, spheroid diameters on days 5, 10, 15
  long-term proliferation as cell spheroids: could stably proliferate at a uniform rate over 15 days of culture
[4]
  cell support / distribution of cells: presenting a stereoscopic distribution within a 3D environment

## LLLLLGSVLGPAGEGPAGE [SEQ ID NO.: 29, LLLLLGSVLGPAGEGPAGE]
[5]; [8]
  gel state after extrusion by syringe: maintains a gel state even after being extruded by the syringe
  hydrogel formation: rapidly forms a hydrogel

## CC[C@H](C)[C@H](N)C(=O)N[C@H](C(=O)N[C@H](C(=O)N[C@H](C(=O)N[C@H](C(=O)NCC(=O)N[C@@H](CO)C(=O)N[C@H](C(=O)N[C@H](C(=O)NCC(=O)N1C[C@H](O)C[C@H]1C(=O)NCC(=O)NCC(=O)N[C@H](C(=O)NCC(=O)N1CCC[C@H]1C(=O)NCC(=O)NCC(=O)N[C@H](C(=O)O)C(C)C)C(C)C)[C@@H](C)CC)[C@@H](C)CC)[C@@H](C)CC)[C@@H](C)CC)[C@@H](C)CC)[C@@H](C)CC [SEQ ID NO.: 9, IIIIIGSIIGOGGVGPGGV] (H-IIIIIGSIIG[Hyp]GGVGPGGV-OH)
[6]; [9]
  self-assembly response to serum: no longer response to serum
[6]; neutral aqueous solution
  hydrogel formation without initiator: could form a hydrogel in a neutral aqueous solution

## IIIIIGSIIGPGGDGPGGV [SEQ ID NO.: 1, IIIIIGSIIGPGGDGPGGV]
[1]
  time at which significant sedimentation of erythrocytes was shown: 8 h
[5]; 0.5 wt.% peptide solution, no initiator, vial inverted
  state of peptide solution without initiator: in a liquid state
[5]; 0.5 wt.% peptide, arginine as initiator
  hydrogel formation in the presence of arginine: formed a self-assembling peptide hydrogel
[5]; tissue liquid as initiator
  hydrogel formation and gel state after syringe extrusion: can form a hydrogel and maintain a gel state after being extruded by a syringe

## CC[C@H](C)[C@H](N)C(=O)N[C@H](C(=O)N[C@H](C(=O)N[C@H](C(=O)N[C@H](C(=O)N[C@H](C(=O)NCC(=O)N[C@@H](CO)C(=O)N[C@H](C(=O)N[C@H](C(=O)NCC(=O)N1C[C@H](O)C[C@H]1C(=O)NCC(=O)N[C@@H](C)C(=O)N[C@@H](CCC(=O)O)C(=O)NCC(=O)N1CCC[C@H]1C(=O)NCC(=O)NCC(=O)N[C@H](C(=O)NCC(=O)N1CCC[C@H]1C(=O)NCC(=O)NCC(=O)N[C@H](C(=O)O)C(C)C)C(C)C)[C@@H](C)CC)[C@@H](C)CC)[C@@H](C)CC)[C@@H](C)CC)[C@@H](C)CC)[C@@H](C)CC)[C@@H](C)CC [SEQ ID NO.: 10, IIIIIIGSIIGOGAEGPGGVGPGGV] (H-IIIIIIGSIIG[Hyp]GAEGPGGVGPGGV-OH)
[6]; [9]
  hydrogel structure and elasticity in response to serum: could still form a hydrogel structure but with weaker elasticity

## CC[C@H](C)[C@H](NC(=O)[C@H](CC(C)C)NC(=O)[C@@H](N)Cc1ccccc1)C(=O)N[C@H](C(=O)N[C@H](C(=O)NCC(=O)N[C@@H](CO)C(=O)N[C@H](C(=O)N[C@H](C(=O)NCC(=O)N1C[C@H](O)C[C@H]1C(=O)NCC(=O)N[C@@H](C)C(=O)N[C@@H](CCC(=O)O)C(=O)NCC(=O)N1CCC[C@H]1C(=O)NCC(=O)NCC(=O)N[C@H](C(=O)O)C(C)C)[C@@H](C)CC)[C@@H](C)CC)[C@@H](C)CC)C(C)C [SEQ ID NO.: 27, FLIVIGSIIGOGAEGPGGV] (H-FLIVIGSIIG[Hyp]GAEGPGGV-OH)
[2]; 1.5 % peptide, 5% PCL microspheres
  gelation of peptide/microsphere mixture: a gel phenomenon was occured
[2]; 1.5 % peptide, 5% polycaprolactone (PCL) microspheres
  state of microsphere suspension: uniform suspension state

## IIIIIGSIIGPGGEGPGGV [SEQ ID NO.: 2, IIIIIGSIIGPGGEGPGGV]
[1]
  time at which significant sedimentation of erythrocytes was shown: 24 h
